{
  "source": "patent US8946421B2",
  "about": "“Lipidated imidazoquinoline derivatives” (GlaxoSmithKline Biologicals S.A., priority 2008, dated 2015)",
  "system": "C57BL/6 (H2Kb), female mice",
  "test": "serum cytokine response after first injection",
  "type": "in vivo",
  "settings": "sera of mice 3 and 24 hrs after the first injection; with QS21 and MPL",
  "experimental": "Formulation of the compounds for a comparison study requires taking into account the different molecular weights of the core and lipidated molecules, (e.g. 45 and 4.5 μg of the lipidated compound L3 corresponds to approximately to 15 and 1.5 μg of the corresponding core compound, “L3 core”), allowing for the side by side comparison of the corresponding groups in the study. Higher doses of L3 (200 μg) and of L3 core (150 μg) are also tested. In one such study formulations summarized and described below (table 1) are used to vaccinate 6-8 week old C57BL/6 (H2Kb), female mice (10/group). The mice receive two injections 14 days apart and are bled during weeks 1, 3 and 4 (for precise bleed days see FIG. 1). The mice are vaccinated intramuscularly. A heterologous prime/boost using recombinant adenovirus coding for the SIV-p27 protein and adjuvanted p27 are used as control groups, the adenovirus is injected at a dose of 5×10^8 VP. The study design is represented in FIG. 1.\nAdditional investigation illustrates the ability of lipidated TLR7/8 compounds to induce innate chemokines and pro-inflammatory cytokines among which type I IFN is known to be required for the programming of naïve CD8-T-cell (survival, differentiate and memory development). These cytokines are measured in the sera of mice 3 and 24 hrs after the first injection (FIGS. 5 and 6).",
  "note": "Some results were stated once for a whole list of compounds, not compound by compound.",
  "data": [
    {"molecule": "CCCCCCCCCCCCCCCC(=O)OC[C@H](COP(=O)(O)OCCn1c(COCC)nc2c(N)nc3ccccc3c21)OC(=O)CCCCCCCCCCCCCCC", "note": "[Compound L3, 4-Amino-1-[2-(1,2-dipalmitoyl-sn-glycero-3-phospho)ethyl]-2-ethoxymethyl-1H-imidazo[4,5-c]quinoline]", "values": [
      {"measurement": "increase of chemokine MCP-1 in serum", "value": "up to 10 fold"},
      {"measurement": "increase of chemokine MIG in serum", "value": "up to 10 fold"}
    ]}
  ]
}
